# Data as given in PubChem BioAssay AID1458 (National Center for Advancing Translational Sciences (NCATS), 2008).
# Hit rate of the full screen: of about 210,000 compounds, about 5,900 (2.8%) were called active. Not shown: some 5% with an inconclusive outcome. Calls follow the shape of the dose curve; as a rule, active = well fitted activation curve with a large enough effect; inconclusive = small, poorly fitted or top-dose-only effect; inactive = no such curve, though single readings can be large or run the other way. The entries are a selection whose mix differs from that of the whole data set. Entries without a call were filed so in the source.
# Test: qHTS Assay for Enhancers of SMN2 Splice Variant Expression; also: nearly all actives have a fitted effect of over 55% in size; as to activity change, positive = activation: % of control where 0% means no effect
# Conditions: HEK293 SMN2-luciferase splicing reporter, luminescence, 30-36 h; activity change, positive = activation: at 46.1 µM (top of the series) unless noted
# Procedure, shortened: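 HEK293 cells carry an SMN2 minigene-luciferase reporter in which exon 7 inclusion puts luciferase in frame. Cells were seeded at 2000 cells/well, attached for 10-12 hours, then exposed to compounds for 30-36 hours at 37C before ONE-Glo luminescence.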
# Potency is read from the fitted curve at half-maximal effect.
Compound,"activity change, positive = activation",Potency
CC(=O)N1CCc2cc(S(=O)(=O)NCCC(=O)Nc3cccc(C)c3)ccc21,40.3%,–
c1ccc(-c2cc(-c3nnc4n3N=C(c3ccc5ccccc5c3)CS4)[nH]n2)cc1,–,active: 11.2 µM
Cc1ccccc1NC(=O)c1ccc2snnc2c1,49.3%,–
CCCCCCc1nc2ccccc2c(=O)n1NC(=O)c1c(O)c2c(n(CC(C)C)c1=O)CCCC2,-43.4%,–
Cc1nc(C)c(C(=O)Nc2ncc([N+](=O)[O-])s2)o1,–,active: 0.891 µM
O=[N+]([O-])c1ccc2nc(-c3ccc(OC(F)F)cc3)cn2c1,84.8%,–
COc1cccc(/C=N/Nc2ncnc(Cl)c2N)c1O,-97.8%,–
O=C(NC(=S)NCc1nc2ccccc2[nH]1)c1ccccc1F,107%,–
O=C1CSC(c2ccc(Cl)cc2)N1Nc1nc(N2CCOCC2)nc(N2CCOCC2)n1 (stereo not given),34.4%,–
COc1ccc2oc(=O)c(C(=O)N3CCN(c4ccccc4C)CC3)cc2c1,–,active: 14.1 µM
O=C(Nc1ccc(N2CCCCC2)c(Cl)c1)c1ncn[nH]1,45.4%,–
O=C(c1ccco1)N1CCN(S(=O)(=O)c2ccc(C3CCCCC3)cc2)CC1,inactive: -74.4%,–
CCCCSc1nc(NCc2ccco2)c2c3c(sc2n1)COC(C)(C)C3,-43%,–
CCC(C)N1C(=O)S/C(=C/c2ccc(N3CCOCC3)cc2C)C1=O (stereo not given),inactive: -16.4%,–
COc1cccc(/C=N/NC(=O)c2[nH]c(C)c(C(=O)N/N=C/c3cccc(OC)c3O)c2C)c1O,-52.4%,–
CS(=O)(=O)NCCSc1nnnn1-c1ccccc1,48.7%,–
COc1ccccc1-c1nnc2sc(-c3cnccn3)nn12,59.4%,–
CCC(=O)Nc1cccc(C(=O)/C=C/c2ccc(F)cc2)c1,inactive: -62.1%,–
Cc1ccc(C)n1-c1ccc(C(=O)Nc2ccccc2)cc1,–,active: 12.6 µM
COC(=O)Nc1ncc(CN2C(=O)c3ccccc3C2=O)s1,36.2%,–
COc1cc(OC)cc(C(=O)N=c2sc3ccccc3n2C)c1,–,active: 10 µM
O=C(CSc1nc2ccccc2[nH]1)c1ccc(Cl)s1,43.6%,–
COc1ccc(C(=O)NCc2cccnc2)cc1S(=O)(=O)N1CCOCC1,35.5%,–
O=c1oc2ccccc2cc1-c1nc2c(s1)CCCC2,–,active: 1 µM
Cn1cnc([N+](=O)[O-])c1Oc1ccc2ccccc2c1,-10.8%,–
Cc1c(NC(=O)c2cc(-c3ccc4c(c3)OCO4)on2)c(=O)n(-c2ccccc2)n1C,44.4%,–
CC1CCCC(NC(=O)COC(=O)c2c[nH]c(=O)[nH]c2=O)C1C (stereo not given),38%,–

Compound,"activity change, positive = activation",Potency
CCC1(COC(NC(=O)c2cccnc2)(C(F)(F)F)C(F)(F)F)COC1,25.6%,–
O=c1n(S(=O)(=O)c2cccc3cccnc23)c2ccccc2n1S(=O)(=O)c1cccc2cccnc12,–,active: 11.2 µM
CC(C)c1ccc(-c2noc(C3CCCN(C(=O)c4ccc(F)cc4F)C3)n2)cc1 (stereo not given),-93.7%,–
CC(=O)N1CCN(c2ccc(NCc3ccc(C)cc3)cc2)CC1,inactive: -39.9%,–
CCNc1nc(N)nc(-c2cc(Cl)ccc2O)n1,–,active: 11.2 µM
Cc1ccc(-c2cc(C(=O)OCC(=O)Nc3cc(C)on3)c3ccccc3n2)c(C)c1,36.3%,–
Cc1nc2c(ccc3nc(NC(=O)C(c4ccccc4)c4ccccc4)sc32)s1,inactive: -63.5%,–
O=C(CNC(=O)OCc1ccccc1)NC1CCCCCCC1,-36.4%,–
Cc1nn(C)cc1CNC(=O)c1cnn2c(C(F)F)cc(C3CC3)nc12,62.3%,–
NCCCSC1=NCCCN1,24.1%,–
CC(C)(C)c1ccc(NC(=O)COC(=O)CCc2nc3ccccc3c(=O)[nH]2)cc1,41.2%,–
COc1cc(COc2cc(N)c(Cl)cc2C(=O)CCC2CCN(CCNS(C)(=O)=O)CC2)cc(OC)c1,-99.3%,–
O=C(OCC(=O)N1CCc2ccccc21)c1cccnc1,39.6%,–
CN(Cc1ccccc1)c1ncnc2c1cnn2-c1ccccc1,–,active: 5.62 µM
Cc1ccc(NC(=O)c2c(NC(=O)C(F)(F)F)sc3c2CCCCC3)cc1,inactive: -43.5%,–
Cn1c(=O)c2c(ncn2CC(=O)N2CCN(c3cccc(Cl)c3)CC2)n(C)c1=O,47.3%,–
COCc1cc(C)nc(SCc2nc3ccccc3c(=O)[nH]2)c1C#N,-45.5%,–
CCOc1ccccc1NC(=O)c1cn(C2CCCC2)c(=O)c2c1c1ccccc1n2C,33.1%,–
Cc1ccccc1Cn1nc(C)c(NC(=O)c2cc3n(n2)C(C(F)F)CC(C(F)F)N3)c1C (stereo not given),26.3%,–
CCC(C)N(C(=O)c1csnn1)C(C(=O)NC(C)(C)C)c1ccccc1 (stereo not given),18.1%,–
COc1cccc(NC(=O)c2ccccc2SC)c1,33%,–
Clc1nc(-c2ccccn2)nc2scc(-c3ccccc3)c12,–,active: 5.62 µM
CSc1nc(N)c(C#N)c(-c2ccccc2Cl)c1C#N,33%,–
C/C(N)=C(/C#N)C(=O)CSc1nnc(-c2ccccc2Br)o1,–,active: 2.82 µM
CC1CCCC(C)N1C(=O)Nc1cccc(Cl)c1 (stereo not given),44%,–
CCOC(=O)C(C)c1n[nH]c(=O)c2ccccc12 (stereo not given),39%,–
COC(=O)c1ccc(NC(=O)c2cc3sccc3n2C)cc1,-33.7%,–

# A portion from the list above:
Compound,"activity change, positive = activation",Potency
CC(C)(C)c1ccc(NC(=O)COC(=O)CCc2nc3ccccc3c(=O)[nH]2)cc1,41.2%,–
COc1cc(COc2cc(N)c(Cl)cc2C(=O)CCC2CCN(CCNS(C)(=O)=O)CC2)cc(OC)c1,-99.3%,–
O=C(OCC(=O)N1CCc2ccccc21)c1cccnc1,39.6%,–
CN(Cc1ccccc1)c1ncnc2c1cnn2-c1ccccc1,–,active: 5.62 µM
Cc1ccc(NC(=O)c2c(NC(=O)C(F)(F)F)sc3c2CCCCC3)cc1,inactive: -43.5%,–
Cn1c(=O)c2c(ncn2CC(=O)N2CCN(c3cccc(Cl)c3)CC2)n(C)c1=O,47.3%,–

# Additional results.

Compound,"activity change, positive = activation",Potency
CC(C)C(=O)N1CCN(c2ccc(NC(=O)c3ccc(Br)o3)cc2)CC1,-42.5%,–
CC(=O)c1ccc(N2Cc3ccccc3C2=NC(=O)c2cccs2)cc1,–,active: 14.1 µM
COc1ccc(NC(=S)N(CCCN2CCOCC2)C(C)c2cc3cccc(OC)c3o2)cc1 (stereo not given),-13.7%,–
CS(=O)(=O)c1cc([N+](=O)[O-])c(Sc2nc3ccccc3[nH]2)c([N+](=O)[O-])c1,-62.8%,–
CCOC(=O)Cc1c(C)nc2c(-c3ccc(Cl)cc3)c[nH]n2c1=O,-30.4%,–
CN(C)S(=O)(=O)c1ccccc1C#N,47.6%,–
Cc1cccc(CN2CCN(CC(=O)NCCCN3CCN(c4ccc(F)cc4)CC3)C2=O)c1,-43.6%,–
C#C[C@]1(O)CCC2C3CCC4=C(CCC(=O)C4)C3CC[C@@]21C (stereo not given in full),inactive: 4.77%,–
Cc1c(OCC(=O)OC(C)C)ccc2c3c(c(=O)oc12)CCC3,40.6%,–
Cc1cnc(NC(=O)Nc2ccc(Cl)cc2)s1,inactive: 173%,–
O=C(CSc1ncnc2ccccc12)c1cccs1,144%,–
O=C(/C=C/c1ccc(Cl)c(Cl)c1)N1CCc2ccccc21,–,active: 7.08 µM
Cc1ccccc1Cn1c(CN2CCc3ccccc3C2)nc2c1c(=O)n(C)c(=O)n2C,inactive: -39.2%,–
COc1cccc(/C=C(/C#N)c2ccc(F)cc2)c1OCc1cccc(C(=O)O)c1,46%,–
O=[N+]([O-])c1nn(-c2ccc(Cl)cc2)n(O)c1=NCc1cccnc1,-78.3%,–
CC(NC(=O)CSc1n[nH]c(=O)n1C1CC1)C12CC3CC(CC(C3)C1)C2 (stereo not given),36.1%,–
CCn1c(SCC(=O)Nc2cc(OC)ccc2OC)nnc1C1CCCCC1,29.3%,–
CC(=O)NCCNC(=O)c1ccc(CSc2ccc(Cl)cc2)cc1,–,active: 12.6 µM
Cc1cccc(NC(=O)c2sc3nc(N)c(C#N)cc3c2N)c1,–,active: 15.8 µM
CC(=Nc1cccc(C)c1)c1sc2ccccc2c1O,–,active: 12.6 µM
Cc1ccc(-c2nn3c(C)nnc3c3ccccc23)cc1S(=O)(=O)NCc1ccco1,–,active: 12.6 µM
O=C(Cc1cccc2ccccc12)N/N=C/c1ccc(Sc2cccc3cccnc23)o1,inactive: -57.7%,–
O=C(NC1CCCCCC1)C(=S)NC1CCCCC1,inactive: -36.2%,–
Nc1nnc(-c2cc3ccccc3oc2=O)s1,–,active: 17.8 µM
COc1ccccc1N(C)S(=O)(=O)c1ccc(C(=O)Nc2ccc3nc(C)sc3c2)cc1,inactive: -50.6%,–
CCC(=O)Nc1ccc(/C(C)=N\NC(=O)c2ccc(C)s2)cc1,14.2%,–
COC(=O)c1c(C(=O)OC)c(C)n(Cc2ccco2)c1C,31.6%,–

Compound,"activity change, positive = activation",Potency
CCN(CC)S(=O)(=O)c1cccc(NC(=O)c2ccc(-n3nc(C)cc3C)cc2)c1,inactive: -86.1%,–
CCOc1ccc(C(=O)NC(=S)Nc2ccccc2N2CCOCC2)cc1Br,-52.7%,–
COCCCNC(=O)c1sc2ncnc(N3CCc4ccccc4C3)c2c1C,-54.5%,–
O=C(CSc1nc2ccccc2n1S(=O)(=O)c1ccccc1)N1CCCCC1,38.5%,–
CC(C)(C)NC(=O)CSc1nncn1-c1ccccc1,30.3%,–
COc1ccc(OC)c(S(=O)(=O)N2Cc3ccccc3CC2C(=O)O)c1 (stereo not given),27.8%,–
COc1ccc(C2(O)CCN(CCCCOc3ccccc3)CC2)cc1,27.6%,–
Cc1nn(Cc2ccc(Cl)c(Cl)c2)c(C)c1NC(=O)c1cc(CC(C)C)on1,inactive: -69.6%,–
Cn1c(SCC(=O)OCC(=O)c2ccccc2)nnc1-c1cccs1,28.3%,–
COC(=O)c1[nH]c2c(c1C)C(=O)CC(c1cccs1)C2 (stereo not given),40.5%,–
O=C(NC(CSCc1ccccc1)C(=O)N/N=C/c1ccc(O)cc1O)c1ccc([N+](=O)[O-])cc1 (stereo not given),-91.4%,–
O=C(Nc1nc(-c2ccccn2)cs1)c1ccco1,inactive: -85.3%,–
COc1ccc(-c2noc(CCC(=O)N(C)c3cc(Cl)ccc3OC)n2)cc1,inactive: -40.6%,–
O=C(/C=C/c1ccc(Cl)cc1)NC(=S)Nc1ccc(CN2CCOCC2)cc1,19.8%,–
C/C(=N\NC(=O)Cc1cccn1C)c1cccs1,-4.51%,–
COc1ccc(C(=O)c2c(N)c(-c3nc(-c4ccc5c(c4)OCO5)cs3)c3ccccn23)cc1,43.6%,–
CCN(CC)S(=O)(=O)c1ccc(NC(=O)CSc2nnc(-c3ccc(F)cc3)o2)cc1,-50%,–
Cc1ccc(NC(=S)N(Cc2ccco2)C(C)c2cccs2)cc1 (stereo not given),40%,–
C=CCNc1nc2c(c(=O)n(C)c(=O)n2C)n1Cc1ccc(F)cc1,inactive: -86.3%,–
COc1ccc(C(=O)NCCc2ccc(S(N)(=O)=O)cc2)cc1OC,31.1%,–
CC(C)(C#CCN1CCCCC1)OCCOC(c1ccccc1)c1ccccc1,-59.2%,–
O=C(CCS(=O)(=O)c1ccc(Br)cc1)Nc1cc(F)ccc1F,0.913%,–
CCCn1c(SCC(=O)N2CCN(c3ccc(OC)cc3)CC2)nc2c1c(=O)n(C)c(=O)n2C,inactive: -38.8%,–
COC(=O)C1(Cc2ccccc2)C2c3cc(C(=O)N4CCCC4)n(Cc4ccc(OC(F)(F)F)cc4)c3CC2CN1C(=O)c1ccccc1 (stereo not given),inactive: -45.9%,–
